From doi:10.1101/2023.09.27.559872
No constants are given. Whether binding was seen depends on the method and setting. Binding seen in cells or lysates may run through a third protein. Some entries that bind do so weakly or less than the wild type. For some of these results: Sequences can lack the tags named with a protein.

Protein sequences, listed by entry. Tags and fused reporters are not part of them.
UniProt P60842: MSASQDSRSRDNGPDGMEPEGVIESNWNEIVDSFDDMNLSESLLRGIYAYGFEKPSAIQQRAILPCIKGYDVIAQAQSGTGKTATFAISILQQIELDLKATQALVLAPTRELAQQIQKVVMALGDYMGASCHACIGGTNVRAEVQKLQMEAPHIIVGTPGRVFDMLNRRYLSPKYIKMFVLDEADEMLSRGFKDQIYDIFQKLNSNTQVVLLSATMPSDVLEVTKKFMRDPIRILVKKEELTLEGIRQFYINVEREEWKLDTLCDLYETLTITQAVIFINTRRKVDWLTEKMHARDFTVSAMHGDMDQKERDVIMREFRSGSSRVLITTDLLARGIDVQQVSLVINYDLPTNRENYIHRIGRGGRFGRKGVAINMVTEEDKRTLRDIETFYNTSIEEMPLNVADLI
UniProt Q14240: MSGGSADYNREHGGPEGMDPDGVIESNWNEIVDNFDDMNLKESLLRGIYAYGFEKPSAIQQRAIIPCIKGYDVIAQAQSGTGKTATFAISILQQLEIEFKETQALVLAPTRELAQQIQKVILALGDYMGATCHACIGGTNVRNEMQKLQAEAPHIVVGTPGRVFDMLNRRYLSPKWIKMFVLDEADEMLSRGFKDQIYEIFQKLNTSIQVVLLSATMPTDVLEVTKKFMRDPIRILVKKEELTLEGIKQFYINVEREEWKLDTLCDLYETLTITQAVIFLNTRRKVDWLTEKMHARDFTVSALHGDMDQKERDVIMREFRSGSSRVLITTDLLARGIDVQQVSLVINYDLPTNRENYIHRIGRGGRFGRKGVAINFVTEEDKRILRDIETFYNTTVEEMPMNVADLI
UniProt P38919: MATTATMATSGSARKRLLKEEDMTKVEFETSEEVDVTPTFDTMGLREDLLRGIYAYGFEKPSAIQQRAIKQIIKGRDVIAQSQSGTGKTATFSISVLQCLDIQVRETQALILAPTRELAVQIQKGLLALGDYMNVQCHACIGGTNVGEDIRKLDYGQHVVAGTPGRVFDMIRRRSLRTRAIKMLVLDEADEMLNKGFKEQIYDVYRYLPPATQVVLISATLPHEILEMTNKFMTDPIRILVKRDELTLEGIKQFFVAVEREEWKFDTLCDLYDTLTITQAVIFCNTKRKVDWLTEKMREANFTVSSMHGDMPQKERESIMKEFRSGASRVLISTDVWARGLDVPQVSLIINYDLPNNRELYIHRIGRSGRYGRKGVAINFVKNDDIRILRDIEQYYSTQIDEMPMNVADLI
UniProt P05198: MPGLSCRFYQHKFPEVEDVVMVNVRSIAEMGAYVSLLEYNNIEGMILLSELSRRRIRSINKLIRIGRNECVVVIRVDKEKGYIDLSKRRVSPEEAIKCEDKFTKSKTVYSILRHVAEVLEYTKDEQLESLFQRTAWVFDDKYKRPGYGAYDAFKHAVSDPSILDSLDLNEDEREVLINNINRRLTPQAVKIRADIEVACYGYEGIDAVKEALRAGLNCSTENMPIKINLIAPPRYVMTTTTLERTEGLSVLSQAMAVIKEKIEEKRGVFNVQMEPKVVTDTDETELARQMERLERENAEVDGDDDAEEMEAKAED
UniProt P06730: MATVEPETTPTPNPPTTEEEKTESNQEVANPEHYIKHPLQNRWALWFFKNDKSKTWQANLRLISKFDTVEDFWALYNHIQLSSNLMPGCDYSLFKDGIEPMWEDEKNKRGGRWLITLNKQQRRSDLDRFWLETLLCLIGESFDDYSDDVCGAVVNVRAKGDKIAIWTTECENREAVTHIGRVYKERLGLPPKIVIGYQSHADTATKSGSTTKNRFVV
UniProt P23443: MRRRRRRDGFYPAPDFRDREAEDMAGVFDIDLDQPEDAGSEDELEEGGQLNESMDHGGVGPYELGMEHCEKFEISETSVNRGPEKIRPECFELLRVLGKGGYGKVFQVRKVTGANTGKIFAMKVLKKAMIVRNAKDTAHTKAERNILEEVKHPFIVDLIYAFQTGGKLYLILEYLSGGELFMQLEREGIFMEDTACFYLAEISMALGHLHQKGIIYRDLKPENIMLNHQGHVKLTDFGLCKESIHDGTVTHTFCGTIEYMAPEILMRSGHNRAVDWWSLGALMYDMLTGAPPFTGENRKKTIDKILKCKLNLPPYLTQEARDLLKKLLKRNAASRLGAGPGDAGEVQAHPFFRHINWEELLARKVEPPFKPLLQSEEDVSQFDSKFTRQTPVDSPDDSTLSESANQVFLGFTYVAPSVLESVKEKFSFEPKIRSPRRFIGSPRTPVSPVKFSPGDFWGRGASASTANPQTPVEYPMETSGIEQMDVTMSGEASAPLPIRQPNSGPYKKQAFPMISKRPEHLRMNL

Legend:
Assay in all cases: co-IP
[1] = biological target: T1, IBTK, ectopically expressed (UniProt Q9P2D0)
T1 sequence: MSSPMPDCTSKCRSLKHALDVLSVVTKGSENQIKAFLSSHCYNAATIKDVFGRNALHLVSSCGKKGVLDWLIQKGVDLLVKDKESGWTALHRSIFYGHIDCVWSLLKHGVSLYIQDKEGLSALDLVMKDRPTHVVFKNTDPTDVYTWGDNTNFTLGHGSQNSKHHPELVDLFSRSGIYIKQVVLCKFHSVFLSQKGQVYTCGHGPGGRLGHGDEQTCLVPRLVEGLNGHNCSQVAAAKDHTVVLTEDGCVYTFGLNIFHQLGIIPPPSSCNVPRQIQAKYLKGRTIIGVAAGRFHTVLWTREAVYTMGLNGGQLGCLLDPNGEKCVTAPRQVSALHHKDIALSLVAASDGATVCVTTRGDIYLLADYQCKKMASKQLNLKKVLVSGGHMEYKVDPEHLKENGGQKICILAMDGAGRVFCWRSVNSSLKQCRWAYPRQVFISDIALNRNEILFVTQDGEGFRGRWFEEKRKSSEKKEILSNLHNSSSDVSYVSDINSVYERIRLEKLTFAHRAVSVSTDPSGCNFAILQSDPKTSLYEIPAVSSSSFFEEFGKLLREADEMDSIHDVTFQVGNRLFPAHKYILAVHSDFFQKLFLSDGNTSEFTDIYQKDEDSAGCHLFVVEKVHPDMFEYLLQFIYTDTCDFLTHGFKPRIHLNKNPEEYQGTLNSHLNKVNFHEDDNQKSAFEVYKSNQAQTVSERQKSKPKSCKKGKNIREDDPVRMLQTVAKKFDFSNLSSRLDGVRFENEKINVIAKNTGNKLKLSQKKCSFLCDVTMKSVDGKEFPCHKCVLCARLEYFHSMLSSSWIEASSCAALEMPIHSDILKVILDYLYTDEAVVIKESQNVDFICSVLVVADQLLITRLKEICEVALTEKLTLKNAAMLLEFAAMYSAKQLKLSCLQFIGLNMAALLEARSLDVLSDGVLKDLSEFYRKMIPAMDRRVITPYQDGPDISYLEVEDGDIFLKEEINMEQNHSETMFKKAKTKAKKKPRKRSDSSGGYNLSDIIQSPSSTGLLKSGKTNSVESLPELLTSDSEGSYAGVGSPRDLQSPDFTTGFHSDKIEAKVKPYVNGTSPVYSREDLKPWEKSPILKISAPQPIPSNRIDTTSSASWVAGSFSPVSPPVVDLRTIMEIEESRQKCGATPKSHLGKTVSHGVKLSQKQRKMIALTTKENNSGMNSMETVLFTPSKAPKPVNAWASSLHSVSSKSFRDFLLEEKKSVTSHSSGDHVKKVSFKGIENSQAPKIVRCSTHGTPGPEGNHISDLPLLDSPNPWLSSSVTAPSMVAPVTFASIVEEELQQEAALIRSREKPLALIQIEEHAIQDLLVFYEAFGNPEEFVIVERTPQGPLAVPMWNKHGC

FLAG-BirA*-IBTK = biological target: T2, FLAG-BirA*-IBTK (UniProt Q9P2D0)
T2 sequence: T1 sequence

[2] = biological target: T3, IBTK, endogenous (human (endogenous in 293T)) (UniProt Q9P2D0)
T3 sequence: T1 sequence

Substance | binding [1] | binding (FLAG-BirA*-IBTK) | binding [2]
eIF4A1, ectopically expressed (from UniProt P60842 1-406) | binds |  | 
eIF4A2, endogenous (from UniProt Q14240 1-407) |  | binds | binds
eIF4A3, endogenous (from UniProt P38919 1-411) |  | binds | binds
eIF2α, endogenous (from UniProt P05198 1-315) |  | binds | 
eIF4A3, ectopically expressed (from UniProt P38919 1-411) | binds |  | 
eIF4E, endogenous (from UniProt P06730 1-217) |  | no binding | 
S6K1, in transfected 293T cells (from UniProt P23443 1-525) (enzyme) | binds |  | 
S6K1, endogenous (from UniProt P23443 1-525) (enzyme) |  |  | binds
eIF4A1, endogenous (from UniProt P60842 1-406) |  | binds | binds
eIF4A2, ectopically expressed (from UniProt Q14240 1-407) | binds |  | 
